Data as given in article doi:10.1101/2023.10.26.562393.
Results are given in words; binding and its absence hold for the method and conditions named. Binding seen in cells or lysates may run through a third protein. A result given as binding can be weak or reduced; the word gives no strength.

The chains behind the UniProt entries cited, without tags or fusion partners. Where a name states a change or a piece, a line headed by the entry shows the natural chain unless it says otherwise.
UniProt Q9UQ84: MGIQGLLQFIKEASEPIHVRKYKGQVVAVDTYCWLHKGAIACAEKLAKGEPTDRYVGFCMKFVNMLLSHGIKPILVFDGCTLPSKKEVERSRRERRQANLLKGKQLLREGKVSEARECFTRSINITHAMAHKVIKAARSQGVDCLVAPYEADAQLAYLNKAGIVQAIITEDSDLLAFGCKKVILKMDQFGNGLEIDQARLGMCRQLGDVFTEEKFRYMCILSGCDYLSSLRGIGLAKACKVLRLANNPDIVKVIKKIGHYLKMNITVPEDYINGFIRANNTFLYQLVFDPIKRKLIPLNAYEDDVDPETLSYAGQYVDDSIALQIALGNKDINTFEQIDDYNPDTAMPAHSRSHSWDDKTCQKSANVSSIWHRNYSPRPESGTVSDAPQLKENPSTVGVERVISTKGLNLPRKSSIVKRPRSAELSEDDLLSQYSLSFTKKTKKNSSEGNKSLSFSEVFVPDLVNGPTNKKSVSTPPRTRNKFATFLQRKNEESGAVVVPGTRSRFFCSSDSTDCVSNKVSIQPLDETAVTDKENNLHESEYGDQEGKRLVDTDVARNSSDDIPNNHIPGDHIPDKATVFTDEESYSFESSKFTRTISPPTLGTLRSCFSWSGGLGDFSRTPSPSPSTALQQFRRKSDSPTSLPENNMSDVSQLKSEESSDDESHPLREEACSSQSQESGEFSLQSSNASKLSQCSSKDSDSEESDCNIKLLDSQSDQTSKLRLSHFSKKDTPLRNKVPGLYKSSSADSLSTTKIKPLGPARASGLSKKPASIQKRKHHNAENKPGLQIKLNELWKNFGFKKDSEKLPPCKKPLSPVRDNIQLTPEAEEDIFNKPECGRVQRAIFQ

B1: endogenous cyclin F (HEK293T) (protein, UniProt P41002 1-786)
chain: MGSGGVVHCRCAKCFCYPTKRRIRRRPRNLTILSLPEDVLFHILKWLSVEDILAVRAVHSQLKDLVDNHASVWACASFQELWPSPGNLKLFERAAEKGNFEAAVKLGIAYLYNEGLSVSDEARAEVNGLKASRFFSLAERLNVGAAPFIWLFIRPPWSVSGSCCKAVVHESLRAECQLQRTHKASILHCLGRVLSLFEDEEKQQQAHDLFEEAAHQGCLTSSYLLWESDRRTDVSDPGRCLHSFRKLRDYAAKGCWEAQLSLAKACANANQLGLEVRASSEIVCQLFQASQAVSKQQVFSVQKGLNDTMRYILIDWLVEVATMKDFTSLCLHLTVECVDRYLRRRLVPRYRLQLLGIACMVICTRFISKEILTIREAVWLTDNTYKYEDLVRMMGEIVSALEGKIRVPTVVDYKEVLLTLVPVELRTQHLCSFLCELSLLHTSLSAYAPARLAAAALLLARLTHGQTQPWTTQLWDLTGFSYEDLIPCVLSLHKKCFHDDAPKDYRQVSLTAVKQRFEDKRYGEISQEEVLSYSQLCAALGVTQDSPDPPTFLSTGEIHAFLSSPSGRRTKRKRENSLQEDRGSFVTTPTAELSSQEETLLGSFLDWSLDCCSGYEGDQESEGEKEGDVTAPSGILDVTVVYLNPEQHCCQESSDEEACPEDKGPQDPQALALDTQIPATPGPKPLVRTSREPGKDVTTSGYSSVSTASPTSSVDGGLGALPQPTSVLSLDSDSHTQPCHHQARKSCLQCRPPSPPESSVPQQQVKRINLCIHSEEEDMNLGLVRL

Columns and labels:
Assay in all cases: co-IP
Flag-EXO1 = Flag-EXO1 (UniProt Q9UQ84)
[1] = target: GFP-EXO1 with serine 815 mutated to alanine (UniProt Q9UQ84)
[2] = target: EXO1 lacking the exonuclease domain (residues 16 to 256)
[3] = target: EXO1 lacking the MSH3 interaction domain (129-390)
[4] = target: EXO1 lacking the MLH1 interaction domain part 1 (391-490)

| Molecule | binding (Flag-EXO1) | binding [1] | binding [2] | binding [3] | binding [4] |
| --- | --- | --- | --- | --- | --- |
| GFP-cyclin F L35A/P36A (from UniProt P41002) | binds | – | – | – | – |
| B1 | – | binds | binds | binds | binds |
